Data taken from the supplement of paper PMC8728848.
Some of the results follow.

Columns and labels:
Assay in all cases: glycan array binding signal (z-score within array); higher = stronger binding
Details in all cases: glycan notation: IUPAC condensed, linker removed
[1] = target: Neu5Ac(a2-3)Gal(b1-3)]Neu5Ac(a2-3)Gal(b1-4)]GlcNAc
Outline: (§1)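 The binding signal is a Z-score computed within each array. Data were drawn from 3228 arrays in the Consortium for Functional Glycomics database, restricted to those with a known protein sequence. Scores were averaged over arrays of the same protein sequence at different concentrations or buffers, and over linkers, and negative values can be taken as non-binding.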

Neu5Ac(a2-3)Gal(b1-4)Glc = target: Neu5Ac(a2-3)Gal(b1-4)Glc
Outline: as §1

[2] = target: Neu5Ac(a2-3)Gal(b1-4)GlcNAc
Outline: as §1

[3] = target: Neu5Ac(a2-3)Gal(b1-4)GlcNAc(b1-2)Man
Outline: as §1

[4] = target: Neu5Ac(a2-3)Gal(b1-4)GlcNAc(b1-2)Man(a1-3)[GlcNAc(b1-4)][Neu5Ac(a2-3)Gal(b1-4)GlcNAc(b1-2)Man(a1-6)]Man(b1-4)GlcNAc(b1-4)GlcNAc
Outline: as §1

[5] = target: Neu5Ac(a2-3)Gal(b1-4)GlcNAc(b1-2)Man(a1-3)[Neu5Ac(a2-3)Gal(b1-4)GlcNAc(b1-2)Man(a1-6)]Man(b1-4)GlcNAc(b1-4)GlcNAc
Outline: as §1

[6] = target: Neu5Ac(a2-3)Gal(b1-4)GlcNAc(b1-2)Man(a1-3)[Neu5Ac(a2-3)Gal(b1-4)GlcNAc(b1-2)Man(a1-6)]Man(b1-4)GlcNAc(b1-4)[Fuc(a1-6)]GlcNAc
Outline: as §1

[7] = target: Neu5Ac(a2-3)Gal(b1-4)GlcNAc(b1-2)Man(a1-3)[Neu5Ac(a2-6)Gal(b1-4)GlcNAc(b1-2)Man(a1-6)]Man(b1-4)GlcNAc(b1-4)GlcNAc
Outline: as §1

[8] = target: Neu5Ac(a2-3)Gal(b1-4)GlcNAc(b1-2)[Neu5Ac(a2-3)Gal(b1-4)GlcNAc(b1-4)]Man(a1-3)[GlcNAc(b1-4)][Neu5Ac(a2-3)Gal(b1-4)GlcNAc(b1-2)[Neu5Ac(a2-3)Gal(b1-4)GlcNAc(b1-6)]Man(a1-6)]Man(b1-4)GlcNAc(b1-4)GlcNAc
Outline: as §1

[9] = target: Neu5Ac(a2-3)Gal(b1-4)GlcNAc(b1-2)[Neu5Ac(a2-3)Gal(b1-4)GlcNAc(b1-4)]Man(a1-3)[GlcNAc(b1-4)][Neu5Ac(a2-3)Gal(b1-4)GlcNAc(b1-4)Man(a1-6)]Man(b1-4)GlcNAc(b1-4)GlcNAc
Outline: as §1

[10] = target: Neu5Ac(a2-3)Gal(b1-4)GlcNAc(b1-2)[Neu5Ac(a2-3)Gal(b1-4)GlcNAc(b1-6)]Man(a1-6)[Neu5Ac(a2-3)Gal(b1-4)GlcNAc(b1-2)Man(a1-3)]Man(b1-4)GlcNAc(b1-4)GlcNAc
Outline: as §1

[11] = target: Neu5Ac(a2-3)Gal(b1-4)GlcNAc(b1-2)[Neu5Ac(a2-3)Gal(b1-4)GlcNAc(b1-6)]Man(a1-6)[Neu5Ac(a2-3)Gal(b1-4)GlcNAc(b1-2)Man(a1-3)][GlcNAc(b1-4)]Man(b1-4)GlcNAc(b1-4)GlcNAc
Outline: as §1

[12] = target: Neu5Ac(a2-3)Gal(b1-4)GlcNAc(b1-3)Gal
Outline: as §1

[13] = target: Neu5Ac(a2-3)Gal(b1-4)GlcNAc(b1-3)Gal(b1-3)GlcNAc
Outline: as §1

[14] = target: Neu5Ac(a2-3)Gal(b1-4)GlcNAc(b1-3)Gal(b1-4)GlcNAc
Outline: as §1

[15] = target: Neu5Ac(a2-3)Gal(b1-4)GlcNAc(b1-3)Gal(b1-4)GlcNAc(b1-2)Man(a1-3)[Neu5Ac(a2-3)Gal(b1-4)GlcNAc(b1-3)Gal(b1-4)GlcNAc(b1-2)Man(a1-6)]Man(b1-4)GlcNAc(b1-4)GlcNAc
Outline: as §1

[16] = target: Neu5Ac(a2-3)Gal(b1-4)GlcNAc(b1-3)Gal(b1-4)GlcNAc(b1-3)Gal(b1-4)GlcNAc
Outline: as §1

[17] = target: Neu5Ac(a2-3)Gal(b1-4)GlcNAc(b1-3)Gal(b1-4)GlcNAc(b1-3)Gal(b1-4)GlcNAc(b1-2)Man(a1-3)[Neu5Ac(a2-3)Gal(b1-4)GlcNAc(b1-3)Gal(b1-4)GlcNAc(b1-3)Gal(b1-4)GlcNAc(b1-2)Man(a1-6)]GalNAc
Outline: as §1

[18] = target: Neu5Ac(a2-3)Gal(b1-4)GlcNAc(b1-3)Gal(b1-4)GlcNAc(b1-3)GalNAc
Outline: as §1

[19] = target: Neu5Ac(a2-3)Gal(b1-4)GlcNAc(b1-3)Gal(b1-4)GlcNAc(b1-3)[Neu5Ac(a2-3)Gal(b1-4)GlcNAc(b1-3)Gal(b1-4)GlcNAc(b1-6)]GalNAc
Outline: as §1

[20] = target: Neu5Ac(a2-3)Gal(b1-4)GlcNAc(b1-3)Gal(b1-4)GlcNAc(b1-6)[Gal(b1-3)]GalNAc
Outline: as §1

[21] = target: Neu5Ac(a2-3)Gal(b1-4)GlcNAc(b1-3)Gal(b1-4)[Fuc(a1-3)]GlcNAc
Outline: as §1

[22] = target: Neu5Ac(a2-3)Gal(b1-4)GlcNAc(b1-3)GalNAc
Outline: as §1

[23] = target: Neu5Ac(a2-3)Gal(b1-4)GlcNAc(b1-3)[Neu5Ac(a2-3)Gal(b1-4)GlcNAc(b1-6)]GalNAc
Outline: as §1

[24] = target: Neu5Ac(a2-3)Gal(b1-4)GlcNAc(b1-6)GalNAc
Outline: as §1

[25] = target: Neu5Ac(a2-3)Gal(b1-4)GlcNAc(b1-6)[Gal(b1-3)]GalNAc
Outline: as §1

[26] = target: Neu5Ac(a2-3)Gal(b1-4)GlcNAc(b1-6)[Neu5Ac(a2-3)Gal(b1-3)]GalNAc
Outline: as §1

[27] = target: Neu5Ac(a2-3)Gal(b1-4)GlcNAc6S
Outline: as §1

[28] = target: Neu5Ac(a2-3)Gal(b1-4)[Fuc(a1-3)]GlcNAc
Outline: as §1

[29] = target: Neu5Ac(a2-3)Gal(b1-4)[Fuc(a1-3)]GlcNAc(b1-2)Man
Outline: as §1

[30] = target: Neu5Ac(a2-3)Gal(b1-4)[Fuc(a1-3)]GlcNAc(b1-3)Gal
Outline: as §1

[31] = target: Neu5Ac(a2-3)Gal(b1-4)[Fuc(a1-3)]GlcNAc(b1-3)Gal(b1-4)GlcNAc
Outline: as §1

[32] = target: Neu5Ac(a2-3)Gal(b1-4)[Fuc(a1-3)]GlcNAc(b1-3)Gal(b1-4)[Fuc(a1-3)]GlcNAc(b1-3)Gal(b1-4)[Fuc(a1-3)]GlcNAc
Outline: as §1

[33] = target: Neu5Ac(a2-3)Gal(b1-4)[Fuc(a1-3)]GlcNAc(b1-3)GalNAc
Outline: as §1

[34] = target: Neu5Ac(a2-3)Gal(b1-4)[Fuc(a1-3)]GlcNAc(b1-6)[Gal(b1-3)]GalNAc
Outline: as §1

[35] = target: Neu5Ac(a2-3)Gal(b1-4)[Fuc(a1-3)]GlcNAc(b1-6)[Neu5Ac(a2-3)Gal(b1-3)]GalNAc
Outline: as §1

[36] = target: Neu5Ac(a2-3)Gal(b1-4)[Fuc(a1-3)]GlcNAc6S
Outline: as §1

[37] = target: Neu5Ac(a2-3)Gal6S(b1-4)GlcNAc
Outline: as §1

B1: Clec12b (Mus musculus), Q149M0 (protein)
chain: MSDEVTYATLMLQDSARVRGNQDGNNLRKEGHPAQSSLWRGAALSLMTLCLVLVTGLVTLATMFLQVSNDINSDSEKLSQLQKSIHPQQDNLSESLNSSRKSLTEESLQSQISALLERQEQMATKLCKEFLIHASDHKCNPCPKTWQWYGNSCYYFSINEEKSWSDSRKDCIDKNATLVKIDSTEERDLLQSQLSLTFSFFWLGLSWNSSGRNWLWEDGSFPPPTLFSDKELASFNGSRDCAYFERGNIYASRCSAEIPWICEKTASLVKTEDLD
glycan array binding signal (z-score) [1]: -0.382 | glycan array binding signal (z-score) (Neu5Ac(a2-3)Gal(b1-4)Glc): -0.104 | glycan array binding signal (z-score) [2]: -0.691 | glycan array binding signal (z-score) [3]: 1.58 | glycan array binding signal (z-score) [4]: -0.691 | glycan array binding signal (z-score) [5]: -0.716 | glycan array binding signal (z-score) [6]: 11.9 | glycan array binding signal (z-score) [7]: -0.741 | glycan array binding signal (z-score) [8]: -0.778 | glycan array binding signal (z-score) [9]: -0.562 | glycan array binding signal (z-score) [10]: -0.519 | glycan array binding signal (z-score) [11]: -0.655 | glycan array binding signal (z-score) [12]: -0.778 | glycan array binding signal (z-score) [13]: -0.733 | glycan array binding signal (z-score) [14]: -0.416 | glycan array binding signal (z-score) [15]: -0.516 | glycan array binding signal (z-score) [16]: -0.487 | glycan array binding signal (z-score) [17]: 1.15 | glycan array binding signal (z-score) [18]: -0.767 | glycan array binding signal (z-score) [19]: -0.513 | glycan array binding signal (z-score) [20]: -0.721 | glycan array binding signal (z-score) [21]: -0.055 | glycan array binding signal (z-score) [22]: -0.623 | glycan array binding signal (z-score) [23]: 0.725 | glycan array binding signal (z-score) [24]: 2.19 | glycan array binding signal (z-score) [25]: -0.442 | glycan array binding signal (z-score) [26]: 1.17 | glycan array binding signal (z-score) [27]: -0.702 | glycan array binding signal (z-score) [28]: -0.514 | glycan array binding signal (z-score) [29]: -0.749 | glycan array binding signal (z-score) [30]: -0.097 | glycan array binding signal (z-score) [31]: -0.279 | glycan array binding signal (z-score) [32]: -0.548 | glycan array binding signal (z-score) [33]: 0.688 | glycan array binding signal (z-score) [34]: 2.54 | glycan array binding signal (z-score) [35]: 2.04 | glycan array binding signal (z-score) [36]: -0.325 | glycan array binding signal (z-score) [37]: -0.451
